{"source": "patent US12310947B2", "about": "“Methods and compositions for unsilencing imprinted genes” (priority 2019, dated 2025)", "test_system": "paternal Ube3a-YFP", "experiment": "In vivo unsilencing of paternal Ube3a-YFP, brain immunohistochemistry after IP injection in Ube3a^m+/pYFP mice", "design": "species or system mouse", "details": "2 mg/kg IP at P11, brain at P13, Ube3a^m+/pYFP mice", "method": "Saline treated wild type and Ube3a^m+/pYFP mice served as immunohistochemistry controls showing the absence of GFP-immunoreactivity in wild type mice (FIG. 14B) and expected paternal UBE3A-YFP protein expression in glial cells and in newly generated immature neurons in Ube3a^m+/pYFP mice (FIG. 14C; Judson et al. J Comp Neurol 2014 522(8):1874-96), respectively.\nP13 mice were deeply anesthetized with euthasol (100 mg/kg, i.p.) prior to transcardial perfusion with phosphate-buffered saline (PBS), pH 7.4, followed by phosphate-buffered 4% paraformaldehyde, pH 7.4. Perfused brains were postfixed overnight and cryoprotected with 30% sucrose in PBS, pH 7.4, for two days. Cryoprotected brains were frozen on dry ice and cut into 40 μm-thick sections with a sliding microtome (Thermo Scientific, Kalamazoo, MI, USA). Sections were stored in a cryopreservative solution (by volume: 45% PBS, 30% ethylene glycol, 25% glycerol) at −20° C. until they were processed for free-floating immunohistochemistry (IHC). For IHC, sections were rinsed several times in PBS before blocking in PBS plus 5% normal goat serum and 0.2% Triton-X-100 (NGST) for 1 hour at room temperature. Sections were incubated with rabbit anti-GFP (1:1000, NB 600308, Novus Biologicals) and mouse anti-NeuN (1:500, MAB 377, Millipore) primary antibodies diluted in NGST for 48 hours at 4° C. […]"}
{"compound": "C[C@H](C(=O)Nc1cc(C2CC2)[nH]n1)c1ccc(N2CCCC2=O)cc1", "note": "[PHA533533]", "values": [{"measurement": "costaining of GFP and neuronal marker NeuN, hippocampal CA3 region", "value": "near-complete co-localization"}, {"measurement": "paternal Ube3a-YFP in brain (GFP immunohistochemistry)", "value": "successfully upregulated paternal Ube3a-YFP throughout the brain"}]}
